Results published in patent US20220387635A1, “PET IMAGING OF CANCEROUS CELLS USING 18F-FLUOROACETATE” (priority 2019, published 2022).

Test system: NALM-6 GFP-ffLuc tumor (leptomeningeal disease)
Assay: [18F]-fluoroacetate PET/CT and PET/MRI imaging of ALL/LMD mouse model
Assay type: in vivo

O=C(O)C[18F] [[^18F]-fluoroacetate, ^18F-fluoroacetate] was tested, and the “Radiotracer uptake by PET-CT vs control mouse” value (NSG mice with systemic NALM-6 GFP-ffLuc, i.v. tracer, static PET 1 h after injection) was “elevated uptake of the radiotracer throughout the central nervous system” and the “Radiotracer uptake by PET/MRI vs normal control mouse” value (mouse bearing systemic NALM-6 tumor, brain and spinal cord) was “specific uptake”.
